# According to US20140163050A1, “Use of 1H-quinazoline-2,4-diones” (priority 2011, published 2014):
# Test system: patients with PSE
# Assay: PK-PD relationship, Emax model for SPR
# Format: in vivo, human
# Procedure: The mean SPR per eye condition and plasma PK concentrations of C-7 50, 100, and 15 mg dose groups is shown in FIG. 3, FIG. 4 and FIG. 5, respectively.
# A PK-PD model was developed sequentially for the SPR data. Firstly a pharmacokinetic model was fitted using nonlinear mixed effects methodology in NONMEM version VI to describe the 13 patients with both PK and PD data. A 3 compartment disposition model with first order absorption and absorption lag time was selected to describe the pharmacokinetic time profile for each patient. The between patient variability was described by exponential random effects on each pharmacokinetic parameter, with all parameters assumed to be independent between individuals. The residual error model combined the additive and proportional error terms. The estimated pharmacokinetic parameters for each patient were used to generate each patient's PK profile as an input to the pharmacodynamic model.
# For the Pharmacodynamic response, SPR, an Emax model was fitted on the logit transformed scale:
# where Base is the baseline SPR on the logit scale, Emax is the maximum reduction in SPR on the logit scale, EC50 is the concentration at which the 50% of the maximum reduction is obtained and C is C-7 concentration. […]
structure (smiles),measurement,setting,value
"CC(C)c1cc2[nH]c(=O)n(NS(C)(=O)=O)c(=O)c2cc1-c1ccnn1C [Compound C-7, N-[7-Isopropyl-6-(2-methyl-2H-pyrazol-3-yl)-2,4-dioxo-1,4-dihydro-2H-quinazolin-3-yl]-methanesulfonamide]",relationship between SPR Tmax and PK Tmax,"SPR and PK concentration over time plots, 15, 50, 100 mg",linear relationship
same,onset of PD effect relative to maximum plasma concentrations,all dose groups,either an hour before or around the same time when maximum plasma concentrations were achieved
